Structures can show the parent of a compound that is named as a salt. This is one part of the list. Part of the spread comes from offsets between plates or batches.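 Smoothened with circularly permuted GFP in its cytoplasmic tail is carried by a clonal Drosophila S2 line; fluorescence appears when Hh-driven phosphorylation opens an inhibitory loop. Per-cell signal, read by flow cytometry, was scaled to Hh-stimulated untreated cells. Hits were consistent fluorescence-shifting groups of inhibitors sharing pathway targets, not single compounds.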
System: Drosophila S2 cl14 SmoIP sensor cells
Experiment: normalized SmoIP GFP fluorescence (untreated unstimulated = 0%, untreated Hh-stimulated = 100%); higher = more Smo activation sensor fluorescence
Settings: compound concentration: 15 uM, 24 h
[1] = stimulation: Hh conditioned medium (+Hh)
[2] = stimulation: mock conditioned medium (-Hh)

O=C(NCCN1CCOCC1)c1ccc(Cl)cc1 [moclobemide]
normalized SmoIP GFP fluorescence [1]: 114% | normalized SmoIP GFP fluorescence [2]: -3.79%

C[C@@H](O[C@H]1OCCN(Cc2n[nH]c(=O)[nH]2)[C@H]1c1ccc(F)cc1)c1cc(C(F)(F)F)cc(C(F)(F)F)c1 [Aprepitant]
normalized SmoIP GFP fluorescence [1]: 136% | normalized SmoIP GFP fluorescence [2]: 60.6%

O=C(NOCC1CC1)c1ccc(F)c(F)c1Nc1ccc(I)cc1Cl
normalized SmoIP GFP fluorescence [1]: 160% | normalized SmoIP GFP fluorescence [2]: 70.3%

NS(=O)(=O)c1ccc(NC(=O)Nc2ccc(F)cc2)cc1
normalized SmoIP GFP fluorescence [1]: 112% | normalized SmoIP GFP fluorescence [2]: 2.63%

C[C@]12CC[C@@H]3c4ccc(O)cc4C[C@@H](CCCCCCCCC[S+]([O-])CCCC(F)(F)C(F)(F)F)[C@H]3[C@@H]1CC[C@@H]2O (some centres not stated) [Fulvestrant]
normalized SmoIP GFP fluorescence [1]: 179% | normalized SmoIP GFP fluorescence [2]: 98.3%

O=C(CSc1nc2c(c(=O)n1-c1ccccc1)SCC2)Nc1ccc(-c2ccccc2)cn1
normalized SmoIP GFP fluorescence [1]: 138% | normalized SmoIP GFP fluorescence [2]: 46.9%

CNCCCC12CCC(c3ccccc31)c1ccccc12 [Maprotiline-hydrochloride]
normalized SmoIP GFP fluorescence [1]: 178% | normalized SmoIP GFP fluorescence [2]: 17.8%

C[C@H](Cn1cnc2c(N)ncnc21)OCP(=O)(O)O [Tenofovir]
normalized SmoIP GFP fluorescence [1]: 135% | normalized SmoIP GFP fluorescence [2]: 4.26%

COc1ccc(Cn2ccc3ccc(C(=O)NO)cc32)cc1
normalized SmoIP GFP fluorescence [1]: 134% | normalized SmoIP GFP fluorescence [2]: 5.2%

O=c1cc(-c2cccc3c2Sc2ccccc2S3)oc(N2CCOCC2)c1
normalized SmoIP GFP fluorescence [1]: 221% | normalized SmoIP GFP fluorescence [2]: 60.6%

CC[C@@]1(O)C(=O)OCc2c1cc1n(c2=O)Cc2cc3c(CN(C)C)c(O)ccc3nc2-1 [Topotecan-Hydrochloride]
normalized SmoIP GFP fluorescence [1]: 139% | normalized SmoIP GFP fluorescence [2]: 44.8%

O=C(Nc1ccc(S(=O)(=O)Nc2ccccc2Cl)c(Cl)c1)c1ccccn1
normalized SmoIP GFP fluorescence [1]: 171% | normalized SmoIP GFP fluorescence [2]: -5.17%

Cc1cc(O)c2c(c1)C(=O)c1cccc(O)c1C2=O [Chrysophanic-acid-Chrysophanol]
normalized SmoIP GFP fluorescence [1]: 126% | normalized SmoIP GFP fluorescence [2]: -12.2%

Cc1c(OCC(F)(F)F)ccnc1C[S+]([O-])c1nc2ccccc2[nH]1 (configuration not stated) [Lansoprazole]
normalized SmoIP GFP fluorescence [1]: 133% | normalized SmoIP GFP fluorescence [2]: 8.14%

COc1cc([C@@H]2c3cc4c(cc3[C@@H](O[C@@H]3O[C@@H]5CO[C@@H](C)O[C@H]5[C@H](O)[C@H]3O)[C@H]3COC(=O)[C@H]23)OCO4)cc(OC)c1OP(=O)(O)O [Etopophos]
normalized SmoIP GFP fluorescence [1]: 203% | normalized SmoIP GFP fluorescence [2]: 55.3%

Nc1nc(N)c2nc(-c3cccc(O)c3)cnc2n1
normalized SmoIP GFP fluorescence [1]: 103% | normalized SmoIP GFP fluorescence [2]: -4.92%

N=C(N)Nc1ccc(C(=O)Oc2ccc3cc(C(=N)N)ccc3c2)cc1 [Nafamostat-mesylate]
normalized SmoIP GFP fluorescence [1]: 115% | normalized SmoIP GFP fluorescence [2]: 23.1%

O=C(O)/C=C/c1ccc(Cn2ccnc2)cc1 [Ozagrel]
normalized SmoIP GFP fluorescence [1]: 120% | normalized SmoIP GFP fluorescence [2]: -12.9%

CCN(CC)CC(=O)Nc1c(C)cccc1C [Lidocaine]
normalized SmoIP GFP fluorescence [1]: 118% | normalized SmoIP GFP fluorescence [2]: -6.51%

COc1c(C)c2c(c(O)c1C/C=C(\C)CCC(=O)OCCN1CCOCC1)C(=O)OC2 [Mycophenolate-mofetil-(CellCept)]
normalized SmoIP GFP fluorescence [1]: 116% | normalized SmoIP GFP fluorescence [2]: 3.72%

Nc1nc(N)c2nc(-c3ccccc3)c(N)nc2n1 [triamterene]
normalized SmoIP GFP fluorescence [1]: 138% | normalized SmoIP GFP fluorescence [2]: 2.12%

COc1ccc(-c2nc(N3CCOCC3)c3sc(CN(C)c4ncc(C(=O)NO)cn4)cc3n2)cn1 [cudc-907]
normalized SmoIP GFP fluorescence [1]: 230% | normalized SmoIP GFP fluorescence [2]: 52.7%

Cn1c(=O)n(-c2ccc(C(C)(C)C#N)cc2)c2c3cc(-c4cnc5ccccc5c4)ccc3ncc21
normalized SmoIP GFP fluorescence [1]: 51.3% | normalized SmoIP GFP fluorescence [2]: -22.5%

CS(=O)(=O)CCNCc1ccc(-c2ccc3ncnc(Nc4ccc(OCc5cccc(F)c5)c(Cl)c4)c3c2)o1 [Lapatinib-Ditosylate]
normalized SmoIP GFP fluorescence [1]: 176% | normalized SmoIP GFP fluorescence [2]: 41.9%

CS(=O)(=O)Nc1ccc([N+](=O)[O-])cc1Oc1ccccc1 [nimesulide]
normalized SmoIP GFP fluorescence [1]: 137% | normalized SmoIP GFP fluorescence [2]: -9.4%

O=c1cc(-c2ccccc2)oc2cc(O)c(O)c(O)c12 [Baicalein]
normalized SmoIP GFP fluorescence [1]: 149% | normalized SmoIP GFP fluorescence [2]: -1.38%

C[S+]([O-])c1ccc(-c2nc(-c3ccc(F)cc3)c(-c3ccncc3)[nH]2)cc1 (configuration not stated)
normalized SmoIP GFP fluorescence [1]: 183% | normalized SmoIP GFP fluorescence [2]: 49.2%

CC(C)C(=O)Oc1ccc(CO)cc1[C@H](CCN(C(C)C)C(C)C)c1ccccc1 [Fesoterodine-fumarate-Toviaz]
normalized SmoIP GFP fluorescence [1]: 131% | normalized SmoIP GFP fluorescence [2]: -7.78%

Cn1ncnc1[C@H]1c2n[nH]c(=O)c3cc(F)cc(c23)N[C@@H]1c1ccc(F)cc1
normalized SmoIP GFP fluorescence [1]: 106% | normalized SmoIP GFP fluorescence [2]: -1.74%

CCOc1cc([C@@H](CS(C)(=O)=O)N2C(=O)c3cccc(NC(C)=O)c3C2=O)ccc1OC
normalized SmoIP GFP fluorescence [1]: 130% | normalized SmoIP GFP fluorescence [2]: -11.2%

CC1(C)CCC(CN2CCN(c3ccc(C(=O)NS(=O)(=O)c4ccc(NCC5CCOCC5)c([N+](=O)[O-])c4)c(Oc4cnc5[nH]ccc5c4)c3)CC2)=C(c2ccc(Cl)cc2)C1
normalized SmoIP GFP fluorescence [1]: 105% | normalized SmoIP GFP fluorescence [2]: -2.31%
